Hit rate of the full screen: of about 340,000 compounds, about 6,200 (1.8%) were called active. Inconclusive means that the source gave no clear call. Such entries were picked first, then a sample of the others. The call rests on the fitted dose curve; in most records, active means well fitted activation curve with a large enough effect; inconclusive means small, poorly fitted or top-dose-only effect; inactive means no such curve, though single readings can be large or run the other way. A potency beside an inconclusive call is a rough fit, not a confirmed value.
Experiment: A quantitative high throughput screen for small molecules that induce DNA re-replication in SW480 colon adenocarcinoma cells. Further: nearly all actives have a fitted effect of over 55% in size.
Details: Hoechst DNA content imaging, 48 h; series mostly up to 46.1 µM
Method in brief: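 Hoechst fluorescence of nuclei (405 nm excitation, 500-530 nm emission) measured by plate-scanning imager after 48 hr compound exposure at 37 C; re-replication scored as increased number of nuclei with elevated intensity.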
Potency means the concentration at half of the fitted maximal effect.

Structure (SMILES) | Potency
Cc1nn(Cc2ccc(C(=O)Nc3ccccc3C(F)(F)F)o2)c(C)c1Br | inactive
CC(Nc1nc(-c2ccc(F)cc2)cs1)c1nc2cc(Cl)c(Cl)cc2n1CCCO (stereo unspecified) | inconclusive: 23.1 µM [activator, single point]
FC(F)(F)c1ccc(N2CCOCC2)c(Nc2nc3ccccc3n3cnnc23)c1 | inconclusive: 20.6 µM [activator, single point]
Cc1cc(NC(=O)CSc2ccc(-c3nc4cc(C)c(C)cc4[nH]3)cn2)no1 | inconclusive: 16.4 µM [activator, single point]
COc1ccc(CN2CCC(N(CCc3ccccc3)Cc3ccccc3)CC2)c(OC)c1 | inconclusive: 23.1 µM [activator, partial curve, poor fit]
Oc1ccc(N=C/C=C/c2cccc(Br)c2)cc1-c1nc2ccccc2s1 | inconclusive: 29.1 µM [activator, single point]
COc1ccc(-n2cc(CNC(C)c3ccncn3)c(-c3cccc(F)c3)n2)cc1 (stereo unspecified) | inactive
Cc1nn(-c2ccccc2)c(N2CCCC2)c1/C=N/NC(=S)Nc1ccccc1C(F)(F)F | inactive
CN(C(=O)C1CCCO1)C1CCS(=O)(=O)C1 (stereo unspecified) | inconclusive: 0.651 µM [activator, single point]
O=C(NCCc1ccccc1Cl)C1CC(=O)N(C2CCCCC2)C1 (stereo unspecified) | inactive
COc1ccc(NC(=O)C2CCCN(c3cnccn3)C2)c(OC)c1 (stereo unspecified) | inconclusive: 1.84 µM [activator, single point]
COc1ccccc1OCCSc1nc2ccccc2n1CC(O)CO (stereo unspecified) | inconclusive: 11.6 µM [activator, partial curve]
Cc1cccc(Oc2sc(C(=O)c3ccccc3)c(N)c2C#N)c1 | inconclusive: 18.4 µM [activator, single point]
CCN(CCn1cccn1)C(=O)CCc1nnc(C2(c3ccc(Cl)cc3)CCC2)o1 | inactive
O=C(COC(=O)c1cc([N+](=O)[O-])ccc1N1CCOCC1)Nc1ccccc1OC(F)F | inconclusive: 0.164 µM [activator, full curve, poor fit]
COc1ccc(Cl)cc1N1C(=NC(=O)C2CCCCC2)SC2CS(=O)(=O)CC21 (stereo unspecified) | inconclusive: 29.1 µM [activator, single point]
Cc1cc(OC(=O)c2c(Cl)cccc2Cl)nc(C)n1 | inconclusive: 29.1 µM [activator, single point]
COc1ccc(CC(=O)NCC2CCCCC2)cc1OC | active: 5.8 µM
CCCn1cc(CN2CCCC(C(=O)c3ccc4c(c3)OCO4)C2)c(C)n1 (stereo unspecified) | inconclusive: 0.0411 µM [activator, full curve, poor fit]
O=C(c1ccc(Cl)cc1Cl)N1CCN(c2ccc(N3CCOCC3)nn2)CC1 | inactive
CC1=C(C)C(OCCCl)N(c2cc(O)c(Cl)cc2F)C1=O (stereo unspecified) | inactive
COc1cc(/C=C/C(=O)N2CCOCC2)ccc1OCc1ccccc1 | inactive
Cc1cccc(-c2noc(CCC(=O)N3CCN(c4cc(C)ccc4C)CC3)n2)c1 | inactive
Cc1ccc(-c2cn3cccc(C)c3n2)cc1 | inactive

Structure (SMILES) | Potency
CSc1nc(Cl)c(C#N)c(-c2ccc(C)cc2)n1 | inactive
CC(C)Cn1c(=O)oc2ccccc21 | inconclusive: 0.13 µM [activator, full curve, poor fit]
COc1ccc(CNC(=O)Cc2ccc(NC(=O)C3=C(C)OCCS3)cc2)cc1 | inconclusive: 6.51 µM [activator, partial curve, poor fit]
Cc1cccc(NC(=S)NNC(=O)CCn2cc(C)cn2)c1 | inconclusive: 3.26 µM [activator, full curve]
COc1cc(/C=N/NC(=O)COc2c(C)cc([N+](=O)[O-])cc2C)ccc1OC(=O)c1ccccc1 | inconclusive: 16.4 µM [activator, partial curve, poor fit]
Cc1nc(-c2cccnc2)sc1C(=O)Nc1ccc(C(F)(F)F)cc1 | inactive
O=C(NCc1ccc2c(c1)OCO2)c1cc([N+](=O)[O-])ccc1N1CCCCC1 | active: 5.8 µM
COc1ccc(NC2CCCN(C(=O)c3ccc4[nH]c(C)c(C)c4c3)C2)cc1 (stereo unspecified) | inactive
CCOc1ccc(S(=O)(=O)N2CCC(C(=O)N3CCN(c4ccccc4)CC3)CC2)cc1 | inconclusive: 18.4 µM [activator, single point]
O=C(COC(=O)c1ccc(-c2nnc(-c3ccccc3)o2)cc1)c1ccccc1 | active: 16.4 µM
COC(=O)c1ccc(CSc2ncnc3c2sc2nc(N4CCOCC4)c4c(c23)CCCC4)o1 | inactive
COc1ccc(NC(=O)c2ccc(C#N)cc2)cc1NS(=O)(=O)c1ccc(F)cc1 | inactive
Cc1nc(-c2ccccc2)sc1C(=O)CSc1ccccc1 | inconclusive: 6.51 µM [activator, single point]
COc1ccc(C2C(O)C(c3c[nH]c4ccccc34)=NN2C(=O)CCl)cc1 (stereo unspecified) | active: 1.3 µM
Cc1c(/C=N/NC(=O)C(NC(=O)c2ccc3c(c2)OCO3)C(C)C)c2ccccc2n1C (stereo unspecified) | inconclusive: 14.6 µM [activator, partial curve, poor fit]
CCCCCC(O)(c1ccccc1)C(CN1CCOCC1)c1ccccc1 (stereo unspecified) | inconclusive: 23.1 µM [activator, single point]
COC(=O)c1ccc(C)c(NS(=O)(=O)c2ccc(NC(C)=O)cc2)c1 | inconclusive: 23.1 µM [activator, single point]
O=C(NC(NC(=S)Nc1c(Cl)cccc1Cl)C(Cl)(Cl)Cl)c1cccc([N+](=O)[O-])c1 (stereo unspecified) | inconclusive: 18.4 µM [activator, single point]
Cc1cc(C(=O)CN2C(=O)C(=O)N(CC(C)C)C2=O)c(C)n1C1CC1 | inconclusive: 2.91 µM [activator, partial curve]
COC(=O)c1ccccc1NC(=O)/C=N/O | inactive
COc1ccc(S(=O)(=O)N2CCOC2CNC(=O)C(=O)NCCc2c[nH]c3ccccc23)cc1C (stereo unspecified) | inactive
C=CCNC(=O)c1ccc(CN(c2ccc(OCC)cc2)S(=O)(=O)c2ccc(C)cc2)cc1 | inconclusive: 23.1 µM [activator, partial curve, poor fit]
Cn1c(=O)c2c(O)c([N+](=O)[O-])c(=O)n(C)c2n(C)c1=O | inactive
COc1ccc(CNC(=O)C[C@H]2C[C@H](C(=O)N3CCCCC3)[C@@]3(C)c4[nH]c5ccc(Cl)cc5c4CCN3C2=O)cc1OC | inconclusive: 18.4 µM [activator, partial curve, poor fit]

Structure (SMILES) | Potency
O=C(c1cccs1)N1CCc2c([nH]c3ccccc23)C1c1ccc(Cl)cc1 (stereo unspecified) | inconclusive: 6.51 µM [activator, partial curve, poor fit]
CCCOc1ccc2oc(=O)c3c(c2c1)CCCN3C(=O)CN1CCN(c2ncccn2)CC1 | inactive
COc1cccc(C(=O)NCCN2CCN(c3ccccc3)CC2)c1 | inconclusive: 29.1 µM [activator, single point]
CN1CCN(CCOc2ccc(Cc3ccccc3)cc2)CC1 | inactive
CC1CC(C)CN(C(=O)Cn2c(SCC(=O)N3CCc4ccccc4C3)nc3ccccc32)C1 (stereo unspecified) | inactive
COc1ccc(-c2cc(C(=O)Nc3cccnc3)c3ccccc3n2)cc1OC | inactive
Cc1ccccc1NC(=O)c1cccc(N2C(=O)C3C4CC(C(Br)C4Br)C3C2=O)c1 (stereo unspecified) | inconclusive: 1.03 µM [activator, full curve, poor fit]
COc1ccc(CCN(C(=O)C(F)(F)F)C(C(=O)NC2CCCCC2)c2ccc(C)s2)cc1 (stereo unspecified) | inconclusive: 0.13 µM [activator, full curve, poor fit]
OCC1OCOC2C(CO)OCOC12 (stereo unspecified) | inconclusive: 25.9 µM [activator, partial curve, poor fit]
CS(=O)(=O)NCCNC(=O)c1cc(OCC(F)(F)F)ccc1OCC(F)(F)F | inconclusive: 4.61 µM [activator, single point]
Cc1cc(C(=O)N/N=C/c2ccco2)c2ccccc2n1 | inconclusive: 32.6 µM [activator, partial curve, poor fit]
S=C(c1ccc2c(c1)OCO2)N1CCN(c2cccc(Cl)c2)CC1 | active: 5.17 µM
O=c1c(Br)ccc(Br)cc1Br | inconclusive: 10.3 µM [activator, partial curve, poor fit]
O=C(CN1C(=O)CCSc2ccc(S(=O)(=O)N3CCOCC3)cc21)Nc1ccccc1Cl | inconclusive: 20.6 µM [activator, single point]
COc1ccc(C(=O)CSc2nc(=O)n(Cc3cccnc3)c3c2CCC3)cc1 | inactive
O=C(NCc1ccccn1)c1cccc(NS(=O)(=O)c2cccc(F)c2)c1 | inactive
COC(=O)C1=C(N)N(c2ccccc2F)C2=C(C(=O)CC(C)(C)C2)C1c1ccc(OC)c(OC)c1 (stereo unspecified) | inconclusive: 1.03 µM [activator, full curve, poor fit]
Clc1ccc(-c2cc(C3CCNCC3)[nH]n2)c(Cl)c1 | inconclusive: 20.6 µM [activator, single point]
CC(C)(C)NC(=O)CSC(=Nc1ccc(F)cc1)NC#N | inactive
Cc1noc(/C=C/N(C)C)c1S(=O)(=O)N(C)CC(=O)N1CCc2ccccc21 | inactive
Cc1cnc(C(=O)OCC(=O)NC2CCCCC2)cn1 | inconclusive: 4.11 µM [activator, full curve, poor fit]
O=C(COC(=O)C1COc2ccccc2O1)Nc1cccc(S(=O)(=O)N2CCCCC2)c1 (stereo unspecified) | inactive
O=C(Cn1cnc([N+](=O)[O-])n1)c1ccc(O)c(O)c1 | inactive

Rewritten as tab-separated lines: entries from further up.
Structure (SMILES)	Potency
OCC1OCOC2C(CO)OCOC12 (stereo unspecified)	inconclusive: 25.9 µM [activator, partial curve, poor fit]
CS(=O)(=O)NCCNC(=O)c1cc(OCC(F)(F)F)ccc1OCC(F)(F)F	inconclusive: 4.61 µM [activator, single point]
Cc1cc(C(=O)N/N=C/c2ccco2)c2ccccc2n1	inconclusive: 32.6 µM [activator, partial curve, poor fit]
S=C(c1ccc2c(c1)OCO2)N1CCN(c2cccc(Cl)c2)CC1	active: 5.17 µM
